From PubChem BioAssay AID588519 (ICCB-Longwood Screening Facility, Harvard Medical School, 2011)
Where “and” joins values, the source holds several entries; their conditions need not be identical. Equal values may be shown once. The list shows a part of the results.

Biological target: Genome polyprotein (Poliovirus type 1 (strain Mahoney)) (UniProt P03300)
Assay: inhibitors of poliovirus polymerase RNA elongation – biochemical, fluorescence polarization, total intensity, primary screen (AID 588519)
Conditions: stronger effect = lower value; % elongation: measured here: total intensity read-out, compound at 16.7 µg/mL; z-score: measured here: FP z-score

| SMILES | % elongation | z-score |
| --- | --- | --- |
| Cc1cc(NC2=NC3C(C(=O)N(C)C(=O)N3C)N2C)n(-c2ccccc2)n1 (stereo not given) | 105% | 0.1 |
| O=P1(Nc2nncs2)C=C(c2ccccc2)SC(c2ccccc2)=C1 | 92% | -0.7 |
| O=P1(Nc2nc3ccc(Cl)cc3s2)COc2ccccc2O1 (stereo not given) | 103% | -0.5 |
| O=C(OCCN1CCN(CCOCc2ccccc2)CC1)C(O)(c1ccccc1)c1ccccc1 | 99% | -0.7 |
| O=C(OCC1CN(Cc2ccccc2)CCO1)C(O)(c1ccccc1)c1ccccc1 (stereo not given) | 103% | 0.5 |
| CC1CCC(C(C)C)C(OP(=O)(Nc2nccs2)c2ccccc2)C1 (stereo not given) | 118% | 0.3 |
| COc1cc2c(cc1NP(C)(=O)Oc1ccccc1)oc1ccccc12 (stereo not given) | 109% | 0.5 |
| COC(=O)c1cc2c(s1)N=C(c1ccccc1)N(C)P2(=O)N1CCOCC1 (stereo not given) | 95% | -0.1 |
| Nc1nonc1OCc1nonc1COc1nonc1N | 103% | 0.3 |
| CC(=O)OC1(C#N)CN2CCC1CC2 (stereo not given) | 103% | -0.7 |
| CC(=O)OC1CN2CCC1C(c1ccccc1)C2 (stereo not given) | 104% | 1.1 |
| O=P(Nc1nccs1)(c1ccccc1)c1ccccc1 | 104% | 0.2 |
| C/C1=C2N=C(/C=C3N=C(/C(C)=C4\[N-][C@@](C)([C@@H]5N=C1[C@](C)(CCC(=O)NC[C@@H](C)OP(=O)([O-])O[C@H]1[C@@H](O)[C@@H](n6cnc7cc(C)c(C)cc76)O[C@@H]1CO)[C@H]5CC(N)=O)[C@@](C)(CC(N)=O)[C@@H]4CCC(N)=O)[C@@](C)(CC(N)=O)[C@@H]\3CCC(N)=O)C(C)(C)[C@@H]/2CCC(N)=O.[C-]#N.[Co+3] | 55% | -4.5 |
| Cc1ccccc1NP(C)(=O)Nc1ccccc1C | 104% | 0.3 |
| CCc1ccc(OP(C)(=O)Nc2cccnc2)cc1 (stereo not given) | 106% | 0.8 |
| CCc1nc2c(n1)c1c(non1O)c1c2no[n+]1[O-] | 82% | -4.1 |
| OCCSCCO | 102% | -0.1 |
| CP(=O)(Nc1ccc(Cl)cc1)Oc1ccc(F)cc1 (stereo not given) | 107% | 0.2 |
| O=C(COC(=O)C(O)(c1ccccc1)c1ccccc1)N1CCCCC1 | 103% | -0.3 |
| CCOP(=Nc1nc2ccccc2n2nnnc12)(OCC)OCC | 103% | -0.2 |
| CN(C(=O)Cc1ccc(Cl)c(Cl)c1)[C@H]1CCCC[C@@H]1N1CCCC1 | 102% and 104% | 0.6 and 1.3 |
| CCOP(OCC)N1CCOCC1 | 101% | 0 |
| CP(=O)(Nc1ccccn1)Oc1ccccc1 (stereo not given) | 105% | 0.2 |
| O=P1(Nc2nccs2)CC=CC1 | 101% | 0 |
| CN(C)P1(=O)Nc2ccccc2S1 (stereo not given) | 115% | 0.6 |
| O=C(OC1CN2CCC1CC2)C12CC3CC(CC(C3)C1)C2 (stereo not given) | 104% | 0.2 |
| CC1=Nc2ccc(C(F)(F)F)cc2C1(C)C | 97% | -0.2 |
| COP1(=S)N=C2c3ccccc3CN2c2cc(N(C)C)ccc21 (stereo not given) | 95% | -0.1 |

| SMILES | % elongation | z-score |
| --- | --- | --- |
| Cc1cc(C)cc(OP(C)(=O)NCc2ccccc2)c1 (stereo not given) | 99% | 0.5 |
| Nc1nonc1OCCOc1nonc1N | 103% | 0.3 |
| O=C(O)CCC(=O)N=S(c1ccccc1)c1ccccc1.O=[N+]([O-])c1cc([N+](=O)[O-])c(O)c([N+](=O)[O-])c1 | 92% | -0.6 |
| COc1ccccc1OP(C)(=O)Nc1ccccc1 (stereo not given) | 99% | -0.5 |
| CCN1C(=O)N(c2ccccc2)P(=S)(OC)c2cc3c(cc21)OCCO3 (stereo not given) | 100% | -0.6 |
| CP(=O)(Nc1ccc(Cl)cc1)Oc1ccccc1 (stereo not given) | 102% | 0 |
| CP(=O)(NC(=O)Nc1ccccc1)Oc1ccccc1 (stereo not given) | 93% | 0 |
| COP1(=S)c2c(C)nn(-c3ccccc3)c2N=C(c2ccccc2)N1C1CC1 (stereo not given) | 98% | -0.1 |
| CCn1cccc/c1=N\P1(=S)OCCO1 | 100% | 0.1 |
| Cc1cccc(NP(C)(=O)Oc2ccccc2)c1 (stereo not given) | 100% | -0.4 |
| CCOC(=O)c1ccc(NP(C)(=O)Oc2ccc(OC)cc2)cc1 (stereo not given) | 98% | 0.1 |
| Nc1nonc1-c1no[n+]([O-])c1-c1nonc1N | 88% | -1.4 |
| O=P1(Nc2ccccn2)COc2ccccc2OC1 | 107% | 0.3 |
| Cc1nn(CCC#N)c2c1P(=O)(Nc1ccccc1Cl)N(C)C(c1ccc(F)cc1)=N2 (stereo not given) | 108% | 0.1 |
| CP(=O)(N1CCOCC1)N1CCOCC1 | 103% | 0.6 |
| Cc1nn(-c2ccccc2)c2c1P(=O)(N1CCOCC1)N(C)C(c1ccccc1)=N2 (stereo not given) | 105% | 0.2 |
| Cc1ccc(C(=O)OC2CN3CCC2CC3)cc1 (stereo not given) | 115% | 0.9 |
| CC1(C)COP(=S)(N(C2=NCCC2)c2ccccc2)OC1 | 90% | -0.4 |
| Cc1cc(C)cc(OP(C)(=O)Nc2ccc(OC(C)C)cc2)c1 (stereo not given) | 107% | -0.3 |
| CCSP(=O)(c1ccccc1)c1ccccc1 | 89% | -0.5 |
| NC(=O)COC(=O)C1(O)c2ccccc2-c2ccccc21 | 109% | 0.1 |
| CCOP1(=S)c2c(C)nn(CCC#N)c2N=C(c2ccc(F)cc2)N1C (stereo not given) | 101% | -0.3 |
| NC(=O)Nc1ccc([As](=O)(O)O)cc1 | 102% | 0.1 |
| O=P1(Nc2nc3ccc(Cl)cc3s2)COc2ccccc2OC1 | 103% | 0.3 |
| Cc1cccc(OCC(=O)OC2CN3CCC2CC3)c1 (stereo not given) | 102% | -0.2 |
| COc1cc(-n2cnnn2)ccc1-n1cnnn1 | 96% | 0.2 |
| O=C(OC1CN2CCC1CC2)c1ccc(Cl)cc1 (stereo not given) | 104% | 0.1 |
